The source of these data is doi:10.1101/2021.05.30.446361.

Protein sequences, listed by entry. Tags and fused reporters are not part of them.
UniProt Q92993: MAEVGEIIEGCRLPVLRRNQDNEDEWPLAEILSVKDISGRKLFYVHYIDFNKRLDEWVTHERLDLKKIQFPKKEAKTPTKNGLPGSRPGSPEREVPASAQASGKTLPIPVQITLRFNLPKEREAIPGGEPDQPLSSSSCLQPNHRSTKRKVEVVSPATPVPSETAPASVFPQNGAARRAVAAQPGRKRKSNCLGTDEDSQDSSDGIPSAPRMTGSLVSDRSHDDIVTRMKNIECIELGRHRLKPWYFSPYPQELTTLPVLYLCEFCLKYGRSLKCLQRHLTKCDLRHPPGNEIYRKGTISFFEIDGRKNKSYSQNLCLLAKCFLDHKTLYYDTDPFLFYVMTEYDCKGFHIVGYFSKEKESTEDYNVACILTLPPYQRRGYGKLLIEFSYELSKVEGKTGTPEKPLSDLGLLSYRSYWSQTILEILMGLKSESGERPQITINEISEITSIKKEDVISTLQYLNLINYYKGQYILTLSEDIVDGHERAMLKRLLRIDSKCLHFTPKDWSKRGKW
UniProt Q9NPF5: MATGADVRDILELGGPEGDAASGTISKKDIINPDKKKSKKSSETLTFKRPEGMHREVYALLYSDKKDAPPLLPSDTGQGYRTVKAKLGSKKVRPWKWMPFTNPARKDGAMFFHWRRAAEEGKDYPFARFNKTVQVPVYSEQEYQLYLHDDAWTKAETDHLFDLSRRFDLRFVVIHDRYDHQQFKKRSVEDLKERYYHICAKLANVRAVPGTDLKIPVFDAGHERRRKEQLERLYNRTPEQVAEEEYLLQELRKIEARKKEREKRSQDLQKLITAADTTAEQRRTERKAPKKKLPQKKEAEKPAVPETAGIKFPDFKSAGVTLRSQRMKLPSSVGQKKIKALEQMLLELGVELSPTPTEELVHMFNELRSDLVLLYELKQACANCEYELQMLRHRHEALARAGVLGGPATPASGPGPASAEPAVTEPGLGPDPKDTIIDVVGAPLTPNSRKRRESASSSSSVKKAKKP
UniProt Q9Y265: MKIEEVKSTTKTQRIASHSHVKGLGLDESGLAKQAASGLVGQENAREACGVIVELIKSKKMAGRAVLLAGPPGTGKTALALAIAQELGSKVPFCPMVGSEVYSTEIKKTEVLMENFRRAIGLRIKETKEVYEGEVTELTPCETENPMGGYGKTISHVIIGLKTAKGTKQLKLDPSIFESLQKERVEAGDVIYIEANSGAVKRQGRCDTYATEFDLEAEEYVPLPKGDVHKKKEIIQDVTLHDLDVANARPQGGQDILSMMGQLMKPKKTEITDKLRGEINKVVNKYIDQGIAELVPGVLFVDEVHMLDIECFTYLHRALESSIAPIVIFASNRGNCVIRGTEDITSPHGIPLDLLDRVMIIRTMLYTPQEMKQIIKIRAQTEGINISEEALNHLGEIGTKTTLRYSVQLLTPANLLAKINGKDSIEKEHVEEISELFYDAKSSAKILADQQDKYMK
UniProt P51532: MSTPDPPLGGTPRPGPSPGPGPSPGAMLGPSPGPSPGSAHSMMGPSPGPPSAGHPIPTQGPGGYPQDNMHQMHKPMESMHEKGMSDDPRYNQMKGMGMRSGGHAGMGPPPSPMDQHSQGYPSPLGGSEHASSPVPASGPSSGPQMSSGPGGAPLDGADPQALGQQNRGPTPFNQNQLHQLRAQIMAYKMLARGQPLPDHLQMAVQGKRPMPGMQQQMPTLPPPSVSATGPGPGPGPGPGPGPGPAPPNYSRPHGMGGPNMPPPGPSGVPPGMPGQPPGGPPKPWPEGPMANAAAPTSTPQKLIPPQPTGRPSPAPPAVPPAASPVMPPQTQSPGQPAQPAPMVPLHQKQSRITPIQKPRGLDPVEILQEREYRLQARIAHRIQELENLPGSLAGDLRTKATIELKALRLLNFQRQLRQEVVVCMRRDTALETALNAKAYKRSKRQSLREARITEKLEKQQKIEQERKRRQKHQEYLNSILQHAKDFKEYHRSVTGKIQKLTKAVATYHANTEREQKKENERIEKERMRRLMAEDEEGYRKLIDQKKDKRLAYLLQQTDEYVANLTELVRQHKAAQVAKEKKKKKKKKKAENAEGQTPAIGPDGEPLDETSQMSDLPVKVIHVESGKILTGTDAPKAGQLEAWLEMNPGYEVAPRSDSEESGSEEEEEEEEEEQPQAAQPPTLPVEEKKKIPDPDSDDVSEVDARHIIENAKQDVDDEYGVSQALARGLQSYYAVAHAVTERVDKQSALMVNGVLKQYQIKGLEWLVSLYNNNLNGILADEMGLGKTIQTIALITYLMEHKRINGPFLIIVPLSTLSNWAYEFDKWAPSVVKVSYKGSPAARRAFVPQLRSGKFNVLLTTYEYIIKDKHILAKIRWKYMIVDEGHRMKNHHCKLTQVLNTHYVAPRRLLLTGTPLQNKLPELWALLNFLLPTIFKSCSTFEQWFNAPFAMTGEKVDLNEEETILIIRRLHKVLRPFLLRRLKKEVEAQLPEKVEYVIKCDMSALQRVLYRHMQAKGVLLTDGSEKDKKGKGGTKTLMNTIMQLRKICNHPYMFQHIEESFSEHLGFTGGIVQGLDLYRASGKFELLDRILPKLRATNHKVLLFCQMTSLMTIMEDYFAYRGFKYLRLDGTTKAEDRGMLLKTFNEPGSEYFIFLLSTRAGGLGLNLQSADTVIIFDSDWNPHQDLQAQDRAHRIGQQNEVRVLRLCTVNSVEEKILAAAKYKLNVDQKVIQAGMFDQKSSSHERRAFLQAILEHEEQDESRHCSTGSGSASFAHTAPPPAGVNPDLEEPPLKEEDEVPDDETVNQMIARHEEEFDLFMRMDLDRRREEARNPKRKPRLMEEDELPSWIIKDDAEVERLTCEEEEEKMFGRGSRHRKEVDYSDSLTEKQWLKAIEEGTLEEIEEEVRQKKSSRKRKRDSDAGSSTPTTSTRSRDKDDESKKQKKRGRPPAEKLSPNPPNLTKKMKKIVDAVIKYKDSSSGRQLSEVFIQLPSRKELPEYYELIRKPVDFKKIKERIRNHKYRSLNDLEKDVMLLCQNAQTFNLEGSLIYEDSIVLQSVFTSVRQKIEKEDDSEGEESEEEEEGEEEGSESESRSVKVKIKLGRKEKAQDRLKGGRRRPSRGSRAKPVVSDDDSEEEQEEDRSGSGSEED

Experiment [1] addresses FLAG-TIP60 (bait of the hNuA4 complex) (human) (UniProt Q92993). The experiment is described as follows: co-IP.
Experiment [2] concerns the target FLAG-DMAP1 (human) (UniProt Q9NPF5). Kind of experiment: co-IP.

These are yes or no findings as the source states them, for the method shown. In cells and extracts the contact can be indirect. Some entries that bind do so weakly or less than the wild type.

In the case of RuvBL1 (from UniProt Q9Y265 1-456), the binding entry in experiment [1] was “binds”. Take “BRG1, core ATPase subunit of the human SWI/SNF chromatin remodelling complexes (from UniProt P51532 1-1647)”: the values for the binding entry in experiment [2] and in experiment [1] were “binds” and “no binding”, respectively.
